Laboratory results published in PMC10564737, “Structure-based design of a phosphotyrosine-masked covalent ligand targeting the E3 ligase SOCS2” (Nature Communications, 2023).
“And” between values parts separate entries of the source, which are not always exact repeats. Equal values may be shown once. The source gives many values for each of these; only a part stands here.

Chains of the proteins cited; added tags and fusions are not shown. Residues count along the entry.
UniProt O14508, 32-198: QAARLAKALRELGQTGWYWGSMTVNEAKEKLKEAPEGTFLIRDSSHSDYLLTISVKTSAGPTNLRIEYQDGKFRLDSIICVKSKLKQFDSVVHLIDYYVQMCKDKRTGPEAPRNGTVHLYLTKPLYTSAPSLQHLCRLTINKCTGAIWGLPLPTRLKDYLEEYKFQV

Target: T1, SBC2 (Homo sapiens, UniProt O14508)
T1 construct: SOCS2 (amino acids 32–198); His6 (N, cleaved yes); made in house; host or cells: E. coli BL21(DE3)
Test: Covalent fluorescence polarization (FP) probe displacement assay
Format: binding
Description: With the specific covalent modification of Cys111 established, we decided to fully characterize MN551 as a covalent SOCS2 inhibitor. […] (Fig. 2g, h, Supplementary Fig. 9). Due to the covalent nature of the competing inhibitor, a time-dependent reduction in the fraction of protein-bound probe is observed. […] This value illustrates reasonable specificity for a covalent inhibitor, with nonetheless scope for future optimization. In addition to characterizing the kinetic covalency parameters, we have also assessed the stability of the MN551 by monitoring its reactivity (half-life >70 min) with reduced glutathione (GSH) (Supplementary Fig. 10)[35].
To monitor the SBC2-ligand binding kinetics we designed a fluorescein-labeled small-molecule probe - compound 26. The fluorescence polarization (anisotropy) of a threefold serial dilution of 50 µM SBC2 in 10 nM of the probe in 100 mM HEPES pH 7.5, 50 mM NaCl, 0.5 mM TCEP, 2% DMSO was measured to determine the KL (Supplementary Fig. 9A) (BMG Labtech PHERAstar – firmware v1.33). Protein titration and the curves were fitted using GraphPad Prism 9, using one-site fitting models to determine the probe binding constant, KL. Samples were run in triplicate in 384 well plates, using a total volume per well of 16 μL. The bound fraction of the probe is measure using the equation:1 Fb=Af−A/Af−Ab Where,
A time-dependent reduction in probe anisotropy were measured for a 2-fold serial dilution of […] compound MN551 in 10 nM probe +300 μM SBC2. To determine the initial reversible binding affinity, the initial bound fraction of the probe at time = 0, Fbo (the y-intercept in Fb v/s Time plot, Supplementary Fig. 9B) was plotted against MN551 concentration, and the obtained IC50 is then converted to Ki (Supplementary Fig. 9C)[17]. The slope from Fb versus time graph when divided by Fbo gives rate of covalency, kobs. A plot of kobs v/s MN551 concentration using Michaelis–Menten model of GraphPad Prism 9, provides the parameters kinact (maximum potential rate of inactivation) and KI (concentration of MN551 at which kobs = kinact/2) (Supplementary Fig. 9D, E).
The observed first-order rate constant, kobs is related to KI and kinact by the equation:2 kobs=kinactI/KI+I
At [I]«[KI] the above equation is converted to3 […]
The slope from the plot of kobs against concentration of MN551 gives us the covalent efficiency parameter kinact/KI (Supp Fig. 9F)[30],[33].

[1] = MN551 12.207 nM, Cycle 8 (35 min)
[2] = MN551 12.207 nM, Cycle 9 (40 min)
[3] = MN551 12.207 nM, Cycle 10 (45 min)
[4] = MN551 12.207 nM; Cycle 6 (25 min)
[5] = MN551 12.207 nM; Cycle 7 (30 min)
[6] = MN551 12.207 nM; Cycle 8 (35 min)
[7] = MN551 12.207 nM; Cycle 9 (40 min)
[8] = MN551 12.207 nM; Cycle 10 (45 min)
[9] = MN551 12.207 nM; Cycle 12 (55 min); n=1
[10] = MN551 12.207 nM; Cycle 13 (60 min); n=1
[11] = MN551 12.207 nM; Cycle 14 (65 min); n=1
[12] = MN551 12.207 nM; Cycle 15 (70 min); n=1
[13] = MN551 12.207 nM; Cycle 16 (75 min); n=1
[14] = MN551 12.599 nM, Cycle 8 (35 min)
[15] = MN551 12.599 nM, Cycle 9 (40 min)
[16] = MN551 12.599 nM, Cycle 10 (45 min)
[17] = MN551 12.599 nM, Cycle 11 (50 min)
[18] = MN551 12.599 nM, Cycle 15 (70 min), n=1
[19] = MN551 12.599 nM, Cycle 16 (75 min), n=1
[20] = MN551 12.599 nM, Cycle 17 (80 min), n=1
[21] = MN551 12.599 nM; Cycle 6 (25 min)
[22] = MN551 12.599 nM; Cycle 7 (30 min)

In the case of `O=C(CCl)Nc1cccc(CNC(=O)[C@H](Cc2ccc(OP(=O)(O)O)cc2)NC(=O)Cc2ccc(F)cc2)c1` [MN551], the Anisotropy (12.207 nM MN551, Cycle 6 (25 min)) is reported as 283, the Anisotropy (12.599 nM MN551, Cycle 5 (20 min)) is reported as 275.6 and the Anisotropy (34.5716 nM MN551, Cycle 2 (5 min)) is reported as 284.7. For the same compound, the Anisotropy (34.5716 nM MN551, Cycle 5 (20 min)) was 278.5, the Anisotropy (48.4003 nM MN551, Cycle 2 (5 min)) was 287 and the Anisotropy (67.7604 nM MN551, Cycle 6 (25 min)) was 279.2. It also gave an Anisotropy (260.308 nM MN551, Cycle 3 (10 min)) of 275.8, an Anisotropy (714.286 nM MN551, Cycle 6 (25 min)) of 259.7 and an Anisotropy (50000 nM MN551, Cycle 5 (20 min)) of 180. The Fb (MN551 12.207 nM, Cycle 7 (30 min)) was 0.8762 and 0.9543 and 0.9614, the “Anisotropy based on Raw Data (485)” value [1] was 280.2 and 279.7 and 276 and the Fb [1] was 0.873 and 0.9618 and 0.9377. For the same compound, the “Anisotropy based on Raw Data (485)” value [2] was 278.9 and 277.7, the Fb [2] was 0.8547 and 0.972 and 0.9659 and the “Anisotropy based on Raw Data (485)” value [3] was 278.9 and 279.3 and 275.1. For the same compound, the Fb [3] was 0.8539 and 0.9632 and 0.9592, the “Anisotropy based on Raw Data (485)” value (MN551 12.207 nM, Cycle 11 (50 min)) was 277.1 and 278.1 and 275.7 and the Anisotropy (MN551 12.207 nM, Cycle 13 (60 min), n=1) was 277.3 and 276.9 and 279. The Anisotropy (MN551 12.207 nM, Cycle 14 (65 min), n=1) was 276 and 276.8 and 279.6, the Anisotropy (MN551 12.207 nM, Cycle 15 (70 min), n=1) was 277.3 and 276.2 and 278.2 and the Anisotropy (MN551 12.207 nM, Cycle 17 (80 min), n=1) was 276 and 273.5 and 277. The “Fb, fraction bound” value (MN551 12.207 nM; Cycle 3 (10 min)) was 1.009 and 1.005 and 1.027, the “Fb, fraction bound” value (MN551 12.207 nM; Cycle 4 (15 min)) was 0.9952 and 0.99 and 0.9945 and the “Fb, fraction bound” value (MN551 12.207 nM; Cycle 5 (20 min)) was 0.9814 and 1.012 and 0.9945. The “Anisotropy data 485,520,520” value [4] was 276.1 and 280.2 and 280.4, the Fb [4] was 0.9636 and 0.9815 and 0.98 and the “Fb, fraction bound” value [4] was 0.9962 and 1.035 and 1.011. The Anisotropy [5] was 280 and 281.1 and 284.4, the “Anisotropy data 485,520,520” value [5] was 273.8 and 278 and 276 and the Fb [5] was 0.9861 and 0.9826 and 0.9875 and 0.9981 and 1.0131 and 1.041. For the same compound, the Anisotropy [6] was 279 and 281.2 and 281.4, the “Anisotropy data 485,520,520” value [6] was 273.1 and 278.2 and 278.4 and the Fb [6] was 0.9611 and 0.9753 and 1.003 and 0.9952 and 1.006 and 1.0169. The Anisotropy [7] was 278.8 and 281.2 and 281.3, the “Anisotropy data 485,520,520” value [7] was 273.5 and 276.3 and 274.8 and the Fb [7] was 0.989 and 0.9708 and 0.9746 and 0.9802 and 1.022 and 1.027. The Anisotropy [8] was 279.5 and 278.1 and 281.2, the “Anisotropy data 485,520,520” value [8] was 272.2 and 279 and 274.1 and the Fb [8] was 0.9929 and 1.007 (2×) and 0.9798 and 0.9971 and 1.029. The Anisotropy (MN551 12.207 nM; Cycle 11 (50 min); n=1) was 272.7 and 277 and 274.7, the Anisotropy (MN551 12.207 nM; Cycle 12 (55 min)) was 277.6 and 277.2 and 280.3 and the Anisotropy [9] was 273.5 and 276.9 and 272. For the same compound, the “Anisotropy based on Raw Data (485)” value [9] was 276.3 and 276.5 and 275.2, the Anisotropy [10] was 272.6 and 275.5 and 274.9 and the “Anisotropy based on Raw Data (485)” value [10] was 275.8 and 277.2 and 270.4. The Anisotropy [11] was 271 and 274.1 and 272.7, the “Anisotropy based on Raw Data (485)” value [11] was 275.3 and 275.1 and 271.8 and the Anisotropy [12] was 268.7 and 270.7 and 271.4. For the same compound, the “Anisotropy based on Raw Data (485)” value [12] was 275.5 and 273.3 and 273.2, the Anisotropy [13] was 275.3 and 273.7 and 276.8 and the “Anisotropy based on Raw Data (485)” value [13] was 272.6 and 274.8 and 271.8. The “Anisotropy data 485,520,520” value (MN551 12.207 nM; Cycle 19 (90 min); n=1) was 272.5 and 274.4 and 274.1, the “Anisotropy data 485,520,520” value (MN551 12.207 nM; Cycle 20 (95 min); n=1) was 273.7 and 274.7 and 273.8 and the Fb (MN551 12.599 nM, Cycle 7 (30 min)) was 0.9121 and 0.9206 and 0.9551. The “Anisotropy based on Raw Data (485)” value [14] was 271.3 and 272.5 and 269.8, the Fb [14] was 0.9023 and 0.9183 and 0.91 and the “Anisotropy based on Raw Data (485)” value [15] was 271.7 and 273.9 and 270.9. For the same compound, the Fb [15] was 0.9192 and 0.9205 and 0.9283, the “Anisotropy based on Raw Data (485)” value [16] was 270.9 and 269.5 and the Fb [16] was 0.9269 and 0.9411 and 0.952. The “Anisotropy based on Raw Data (485)” value [17] was 269 and 270.1 and 268.2, the Fb [17] was 0.9222 and 0.9146 and 0.9293 and the Anisotropy (MN551 12.599 nM, Cycle 13 (60 min), n=1) was 277.9 and 274.8 and 274.2. The Anisotropy (MN551 12.599 nM, Cycle 14 (65 min), n=1) was 278.8 and 276.4 and 274.2, the Anisotropy [18] was 275.5 and 274.4 and 272.9 and the “Normalised anisotropy (0 nM MN551 = 1, free probe = 0)” value [18] was 1.027 and 0.9981 and 0.9952. For the same compound, the Anisotropy [19] was 277.4 and 276.1 and 272.3, the “Anisotropy based on Raw Data (485)” value [19] was 269.5 and 268.6 and 265.3 and the “Normalised anisotropy (0 nM MN551 = 1, free probe = 0)” value [19] was 1.018 and 1.031 and 0.9885. The Anisotropy [20] was 274.3 and 273.6 and 271, the “Normalised anisotropy (0 nM MN551 = 1, free probe = 0)” value [20] was 1.014 and 0.999 and 1.005 and the “Fb, fraction bound” value (MN551 12.599 nM; Cycle 3 (10 min)) was 1.02 and 1.03 and 1.008. For the same compound, the “Fb, fraction bound” value (MN551 12.599 nM; Cycle 4 (15 min)) was 1.038 and 1.003 and 1.011, the “Fb, fraction bound” value (MN551 12.599 nM; Cycle 5 (20 min)) was 1.026 and 1.001 and 1.008 and the “Anisotropy data 485,520,520” value [21] was 275.2 and 272.5 and 273.1. For the same compound, the Fb [21] was 0.9676 and 0.9735 and 1.0203, the “Fb, fraction bound” value [21] was 1.025 and 1.019 and 1.007 and the Anisotropy [22] was 283.2 and 280.9 and 281. For the same compound, the “Anisotropy data 485,520,520” value [22] was 273.5 and 268.7 and 271.9 and the Fb [22] was 0.9678 and 0.9687 and 1.015 and 1.006 and 1.012 and 1.035.
